Literature values as cited in PMC3720659, “Integrated Analysis of Drug-Induced Gene Expression Profiles Predicts Novel hERG Inhibitors” (PLoS ONE, 2013).

Tested on: hERG current
Settings: cited from earlier work; call rule not given here

Nc1nc2ccc(OC(F)(F)F)cc2s1 [riluzole]
Annotation (hERG inhibition class, Active/Inactive by IC50): Inactive

O=C1OCCN1/N=C/c1ccc([N+](=O)[O-])o1 [furazolidone]
Annotation (hERG Active / Inactive): Inactive
